Source: publication PMC10912303
These are yes or no findings as the source states them, for the method shown. In cells and extracts the contact can be indirect. Binding calls can cover weak binding; strength is not graded here.

Target: T1, TGFBR3 (human (endogenous in HGC27 and AGS)) (UniProt Q03167)
T1 sequence: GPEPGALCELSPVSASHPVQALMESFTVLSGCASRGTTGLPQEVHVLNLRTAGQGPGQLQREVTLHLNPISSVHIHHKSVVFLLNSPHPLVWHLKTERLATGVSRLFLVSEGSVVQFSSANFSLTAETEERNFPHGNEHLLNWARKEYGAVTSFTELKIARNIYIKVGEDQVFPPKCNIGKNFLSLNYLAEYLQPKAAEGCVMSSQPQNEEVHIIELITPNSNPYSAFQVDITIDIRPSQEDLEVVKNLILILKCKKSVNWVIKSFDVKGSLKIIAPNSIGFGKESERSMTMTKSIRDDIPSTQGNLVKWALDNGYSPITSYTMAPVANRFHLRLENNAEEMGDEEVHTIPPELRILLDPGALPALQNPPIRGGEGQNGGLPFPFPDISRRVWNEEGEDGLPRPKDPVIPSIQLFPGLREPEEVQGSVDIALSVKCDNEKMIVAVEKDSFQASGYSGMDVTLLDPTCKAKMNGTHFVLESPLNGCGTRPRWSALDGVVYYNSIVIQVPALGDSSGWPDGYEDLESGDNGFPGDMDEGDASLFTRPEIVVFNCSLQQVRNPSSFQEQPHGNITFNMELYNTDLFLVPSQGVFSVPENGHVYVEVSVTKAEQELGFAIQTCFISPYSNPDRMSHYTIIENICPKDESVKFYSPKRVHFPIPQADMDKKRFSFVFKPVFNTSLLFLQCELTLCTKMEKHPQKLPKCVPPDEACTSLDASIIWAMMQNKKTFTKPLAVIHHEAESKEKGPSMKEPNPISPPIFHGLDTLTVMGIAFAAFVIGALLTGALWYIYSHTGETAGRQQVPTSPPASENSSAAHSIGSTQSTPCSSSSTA
Assay: co-IP; lysates of HGC27 and AGS cells co-cultured with CAFs; primary antibody at 4 °C overnight, Protein A + G magnetic beads 1 h at room temperature, western blot

binding: binds
Substance: Human sulfatase 1 (SULF1) (enzyme)
